The list shows a part of the results.
Assays:
Experiment in all cases: glycan array binding signal (z-score within array); higher = stronger binding
Settings in all cases: glycan notation: IUPAC condensed, linker removed
[1] = molecular target: Fuc(a1-2)Gal6S(b1-3)GlcNAc6S
Method in brief: (§1)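 Columns mapping to the same glycan were averaged after glycan names were converted to IUPAC-condensed notation. The data come from 3228 arrays in the Consortium for Functional Glycomics database, limited to those with an available protein sequence. Binding is reported as a within-array Z-score averaged across arrays of one protein sequence and across linkers.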

Fuc(a1-2)Gal6S(b1-4)Glc = molecular target: Fuc(a1-2)Gal6S(b1-4)Glc
Method in brief: as §1

[2] = molecular target: Fuc(a1-2)Gal6S(b1-4)Glc6S
Method in brief: as §1

Fuc(a1-2)[Gal(a1-3)]Gal = molecular target: Fuc(a1-2)[Gal(a1-3)]Gal
Method in brief: as §1

[3] = molecular target: Fuc(a1-2)[Gal(a1-3)]Gal(b1-3)GalNAc
Method in brief: as §1

[4] = molecular target: Fuc(a1-2)[Gal(a1-3)]Gal(b1-3)GalNAc(b1-3)Gal(a1-4)Gal(b1-4)Glc
Method in brief: as §1

[5] = molecular target: Fuc(a1-2)[Gal(a1-3)]Gal(b1-3)GlcNAc
Method in brief: as §1

[6] = molecular target: Fuc(a1-2)[Gal(a1-3)]Gal(b1-3)GlcNAc(b1-2)Man(a1-3)[Fuc(a1-2)[Gal(a1-3)]Gal(b1-3)GlcNAc(b1-2)Man(a1-6)]Man(b1-4)GlcNAc(b1-4)GlcNAc
Method in brief: as §1

[7] = molecular target: Fuc(a1-2)[Gal(a1-3)]Gal(b1-3)GlcNAc(b1-2)Man(a1-3)[Fuc(a1-2)[Gal(a1-3)]Gal(b1-3)GlcNAc(b1-2)Man(a1-6)]Man(b1-4)GlcNAc(b1-4)[Fuc(a1-6)]GlcNAc
Method in brief: as §1

[8] = molecular target: Fuc(a1-2)[Gal(a1-3)]Gal(b1-3)GlcNAc(b1-3)GalNAc
Method in brief: as §1

[9] = molecular target: Fuc(a1-2)[Gal(a1-3)]Gal(b1-3)GlcNAc(b1-6)GalNAc
Method in brief: as §1

[10] = molecular target: Fuc(a1-2)[Gal(a1-3)]Gal(b1-4)Glc
Method in brief: as §1

[11] = molecular target: Fuc(a1-2)[Gal(a1-3)]Gal(b1-4)GlcNAc
Method in brief: as §1

[12] = molecular target: Fuc(a1-2)[Gal(a1-3)]Gal(b1-4)GlcNAc(b1-2)Man
Method in brief: as §1

[13] = molecular target: Fuc(a1-2)[Gal(a1-3)]Gal(b1-4)GlcNAc(b1-2)Man(a1-3)[Fuc(a1-2)[Gal(a1-3)]Gal(b1-4)GlcNAc(b1-2)Man(a1-6)]Man(b1-4)GlcNAc(b1-4)GlcNAc
Method in brief: as §1

[14] = molecular target: Fuc(a1-2)[Gal(a1-3)]Gal(b1-4)GlcNAc(b1-2)Man(a1-3)[Fuc(a1-2)[Gal(a1-3)]Gal(b1-4)GlcNAc(b1-2)Man(a1-6)]Man(b1-4)GlcNAc(b1-4)[Fuc(a1-6)]GlcNAc
Method in brief: as §1

[15] = molecular target: Fuc(a1-2)[Gal(a1-3)]Gal(b1-4)GlcNAc(b1-3)GalNAc
Method in brief: as §1

[16] = molecular target: Fuc(a1-2)[Gal(a1-3)]Gal(b1-4)GlcNAc(b1-6)GalNAc
Method in brief: as §1

[17] = molecular target: Fuc(a1-2)[Gal(a1-3)]Gal(b1-4)[Fuc(a1-3)]Glc
Method in brief: as §1

[18] = molecular target: Fuc(a1-2)[Gal(a1-3)]Gal(b1-4)[Fuc(a1-3)]GlcNAc
Method in brief: as §1

[19] = molecular target: Fuc(a1-2)[Gal(a1-3)]Gal(b1-4)[Fuc(a1-3)]GlcNAc(b1-3)GalNAc
Method in brief: as §1

[20] = molecular target: Fuc(a1-2)[Gal(a1-4)]Gal(b1-4)GlcNAc
Method in brief: as §1

[21] = molecular target: Fuc(a1-2)[GalNAc(a1-3)]Gal
Method in brief: as §1

[22] = molecular target: Fuc(a1-2)[GalNAc(a1-3)]Gal(b1-3)GalNAc(a1-3)[Fuc(a1-2)]Gal(b1-4)GlcNAc
Method in brief: as §1

[23] = molecular target: Fuc(a1-2)[GalNAc(a1-3)]Gal(b1-3)GalNAc(b1-3)Gal(a1-4)Gal(b1-4)Glc
Method in brief: as §1

[24] = molecular target: Fuc(a1-2)[GalNAc(a1-3)]Gal(b1-3)GlcNAc
Method in brief: as §1

[25] = molecular target: Fuc(a1-2)[GalNAc(a1-3)]Gal(b1-3)GlcNAc(b1-2)Man(a1-3)[Fuc(a1-2)[GalNAc(a1-3)]Gal(b1-3)GlcNAc(b1-2)Man(a1-6)]Man(b1-4)GlcNAc(b1-4)GlcNAc
Method in brief: as §1

[26] = molecular target: Fuc(a1-2)[GalNAc(a1-3)]Gal(b1-3)GlcNAc(b1-2)Man(a1-3)[Fuc(a1-2)[GalNAc(a1-3)]Gal(b1-3)GlcNAc(b1-2)Man(a1-6)]Man(b1-4)GlcNAc(b1-4)[Fuc(a1-6)]GlcNAc
Method in brief: as §1

[27] = molecular target: Fuc(a1-2)[GalNAc(a1-3)]Gal(b1-3)GlcNAc(b1-3)GalNAc
Method in brief: as §1

[28] = molecular target: Fuc(a1-2)[GalNAc(a1-3)]Gal(b1-3)GlcNAc(b1-6)GalNAc
Method in brief: as §1

[29] = molecular target: Fuc(a1-2)[GalNAc(a1-3)]Gal(b1-4)Glc
Method in brief: as §1

[30] = molecular target: Fuc(a1-2)[GalNAc(a1-3)]Gal(b1-4)GlcNAc
Method in brief: as §1

[31] = molecular target: Fuc(a1-2)[GalNAc(a1-3)]Gal(b1-4)GlcNAc(b1-2)Man
Method in brief: as §1

[32] = molecular target: Fuc(a1-2)[GalNAc(a1-3)]Gal(b1-4)GlcNAc(b1-2)Man(a1-3)[Fuc(a1-2)[GalNAc(a1-3)]Gal(b1-4)GlcNAc(b1-2)Man(a1-6)]Man(b1-4)GlcNAc(b1-4)GlcNAc
Method in brief: as §1

[33] = molecular target: Fuc(a1-2)[GalNAc(a1-3)]Gal(b1-4)GlcNAc(b1-2)Man(a1-3)[Fuc(a1-2)[GalNAc(a1-3)]Gal(b1-4)GlcNAc(b1-2)Man(a1-6)]Man(b1-4)GlcNAc(b1-4)[Fuc(a1-6)]GlcNAc
Method in brief: as §1

[34] = molecular target: Fuc(a1-2)[GalNAc(a1-3)]Gal(b1-4)GlcNAc(b1-3)Gal(b1-4)GlcNAc
Method in brief: as §1

[35] = molecular target: Fuc(a1-2)[GalNAc(a1-3)]Gal(b1-4)GlcNAc(b1-3)Gal(b1-4)GlcNAc(b1-3)Gal(b1-4)GlcNAc
Method in brief: as §1

[36] = molecular target: Fuc(a1-2)[GalNAc(a1-3)]Gal(b1-4)GlcNAc(b1-3)GalNAc
Method in brief: as §1

[37] = molecular target: Fuc(a1-2)[GalNAc(a1-3)]Gal(b1-4)GlcNAc(b1-3)[Fuc(a1-2)[GalNAc(a1-3)]Gal(b1-4)GlcNAc(b1-6)]GalNAc
Method in brief: as §1

[38] = molecular target: Fuc(a1-2)[GalNAc(a1-3)]Gal(b1-4)GlcNAc(b1-6)GalNAc
Method in brief: as §1

[39] = molecular target: Fuc(a1-2)[GalNAc(a1-3)]Gal(b1-4)[Fuc(a1-3)]GlcNAc
Method in brief: as §1

[40] = molecular target: Fuc(a1-2)[GalNAc(a1-3)]Gal(b1-4)[Fuc(a1-3)]GlcNAc(b1-3)GalNAc
Method in brief: as §1

[41] = molecular target: Fuc(a1-2)[GalNAc(a1-4)]Gal(b1-4)GlcNAc
Method in brief: as §1

[42] = molecular target: Fuc(a1-2)[GalNAc(b1-3)]Gal
Method in brief: as §1

Fuc(a1-3)GlcNAc = molecular target: Fuc(a1-3)GlcNAc
Method in brief: as §1

B1: Pbx2CASH domain (Cryptococcus neoformans) (protein)
chain: GIPGPNRLYRLSGPIIFTAADQEIATYGYPTGSERAVLRVEGRNTATAIQGDCRRCARVSVKNLVVDGNRKKLGRMRDFQLATGLVVLGGNEGQSIQNSWIKNPRGFTAIHIREGDKLQCSGARVEKNEIGPVGEEYDPEKDGDDPEMSPLGRPLADGVSIACRDSFIRDNTFRDNTDAAIVVYCSPGTLIHA
- glycan array binding signal (z-score) [1]: 2.37
- glycan array binding signal (z-score) (Fuc(a1-2)Gal6S(b1-4)Glc): -0.081
- glycan array binding signal (z-score) [2]: -0.343
- glycan array binding signal (z-score) (Fuc(a1-2)[Gal(a1-3)]Gal): -0.432
- glycan array binding signal (z-score) [3]: 0.102
- glycan array binding signal (z-score) [4]: -0.386
- glycan array binding signal (z-score) [5]: 0.142
- glycan array binding signal (z-score) [6]: -0.314
- glycan array binding signal (z-score) [7]: -0.272
- glycan array binding signal (z-score) [8]: -0.448
- glycan array binding signal (z-score) [9]: -0.382
- glycan array binding signal (z-score) [10]: -0.262
- glycan array binding signal (z-score) [11]: -0.657
- glycan array binding signal (z-score) [12]: -0.125
- glycan array binding signal (z-score) [13]: -0.021
- glycan array binding signal (z-score) [14]: -0.104
- glycan array binding signal (z-score) [15]: 0.243
- glycan array binding signal (z-score) [16]: 0.474
- glycan array binding signal (z-score) [17]: -0.36
- glycan array binding signal (z-score) [18]: -0.331
- glycan array binding signal (z-score) [19]: 0.579
- glycan array binding signal (z-score) [20]: -0.583
- glycan array binding signal (z-score) [21]: -0.604
- glycan array binding signal (z-score) [22]: 0.223
- glycan array binding signal (z-score) [23]: -0.515
- glycan array binding signal (z-score) [24]: -0.67
- glycan array binding signal (z-score) [25]: -0.432
- glycan array binding signal (z-score) [26]: -0.184
- glycan array binding signal (z-score) [27]: 0.177
- glycan array binding signal (z-score) [28]: -0.077
- glycan array binding signal (z-score) [29]: -0.382
- glycan array binding signal (z-score) [30]: -0.559
- glycan array binding signal (z-score) [31]: -0.258
- glycan array binding signal (z-score) [32]: 1.37
- glycan array binding signal (z-score) [33]: -0.315
- glycan array binding signal (z-score) [34]: -0.704
- glycan array binding signal (z-score) [35]: -0.374
- glycan array binding signal (z-score) [36]: 0.137
- glycan array binding signal (z-score) [37]: -0.248
- glycan array binding signal (z-score) [38]: -0.641
- glycan array binding signal (z-score) [39]: -0.338
- glycan array binding signal (z-score) [40]: 2.74
- glycan array binding signal (z-score) [41]: -0.683
- glycan array binding signal (z-score) [42]: -0.12
- glycan array binding signal (z-score) (Fuc(a1-3)GlcNAc): -0.751
